{"sequences": {"note": "Chains of the proteins cited; added tags and fusions are not shown. Lines headed by an entry give the natural chain unless they say otherwise; changes in a name come on top.", "UniProt P11473": "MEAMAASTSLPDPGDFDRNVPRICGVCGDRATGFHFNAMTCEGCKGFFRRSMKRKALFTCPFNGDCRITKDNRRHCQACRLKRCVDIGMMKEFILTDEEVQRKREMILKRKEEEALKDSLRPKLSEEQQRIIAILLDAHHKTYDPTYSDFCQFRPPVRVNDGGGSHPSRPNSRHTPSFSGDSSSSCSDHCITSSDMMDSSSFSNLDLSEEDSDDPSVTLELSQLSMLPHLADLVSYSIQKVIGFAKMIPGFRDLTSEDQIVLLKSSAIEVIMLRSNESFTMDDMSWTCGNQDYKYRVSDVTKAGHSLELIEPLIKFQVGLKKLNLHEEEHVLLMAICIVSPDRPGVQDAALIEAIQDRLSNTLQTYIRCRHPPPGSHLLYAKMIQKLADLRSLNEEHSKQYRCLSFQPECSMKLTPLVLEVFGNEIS"}, "source": "PubChem BioAssay AID504847", "about": "(National Center for Advancing Translational Sciences (NCATS), 2011)", "note": "The whole screen tested about 400,000 compounds, of which about 3,700 (0.93%) were called active. The shares of active, inactive and inconclusive entries below differ from those in the screen. Calls follow the shape of the dose curve; as a rule, active = well fitted inhibition curve with a large enough effect; inconclusive = small, poorly fitted or top-dose-only effect, or another doubt; inactive = no such curve, though single readings can be large or run the other way. A potency beside an inconclusive call is a rough fit, not a confirmed value. % is scaled to controls: 0 for no effect and ±100 for the full control effect; potency is read from the fitted curve at half-maximal effect.", "data": [{"target": "Vitamin D3 receptor (Homo sapiens) (UniProt P11473)", "assay": "Inhibitors of the vitamin D receptor (VDR): qHTS", "conditions": "VDR-SRC2-3 peptide fluorescence polarization, 2 h; max response, negative = inhibition: stronger effect = lower value", "outline": "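The screen uses fluorescence polarization to detect compounds that interfere with recruitment of the SRC2-3 coactivator peptide to VDR; plates are read after 2 h at room temperature.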", "values": [{"smiles": "CCCCC1=CC2=C(c3ccco3)C(=O)C(C)(OC(=O)c3ccc(OC)cc3)C(=O)C2=CN1C1CCCCC1", "note": "(stereo not drawn)", "Potency": "inconclusive: 89.1 µM [inhibitor, single point]"}, {"smiles": "Cc1ccc(NC2=C(N3CCOCC3)C(=O)c3ccccc3C2=O)cc1", "Potency": "inconclusive: 56.2 µM [inhibitor, partial curve, poor fit]"}, {"smiles": "O=C(CC1SC(=O)N(c2ccccc2)C1=O)Nc1ccc(Br)cc1", "note": "(stereo not drawn)", "Potency": "active: 35.5 µM"}, {"smiles": "O=C(OCc1cccc(F)c1)c1ccc2c(c1)-c1ccccc1C2=O", "max response, negative = inhibition": "inactive: -10.7%"}, {"smiles": "CCOC(=O)c1ccc(NC(=O)c2c(NC(=O)CCC(=O)O)sc3c2CCCCC3)cc1", "Potency": "inconclusive: 50.1 µM [inhibitor, partial curve]"}, {"smiles": "O=P(c1ccccc1)(c1ccccc1)c1nc(-c2ccc(Cl)cc2)oc1N1CCOCC1", "Potency": "inconclusive: 39.8 µM [inhibitor, single point]"}, {"smiles": "[O-]/[N+](=C\\c1ccco1)c1ccc(Cl)cc1", "Potency": "active: 35.5 µM"}, {"smiles": "COc1ccc(NC(=S)c2ccc3ccccc3n2)cc1", "Potency": "inconclusive: 56.2 µM [inhibitor, partial curve, poor fit]"}, {"smiles": "Cc1ccc(-c2nn(-c3ccccc3)cc2C=O)o1", "max response, negative = inhibition": "inactive: 2.48%"}, {"smiles": "Cc1cc(/C=C\\c2ccccc2)nc2ccccc12", "max response, negative = inhibition": "inactive: -15.3%"}, {"smiles": "COCCn1c(-c2cccs2)csc1=Nc1cccnc1", "max response, negative = inhibition": "inactive: -14.6%"}, {"smiles": "O=C(Cc1ccccc1)Nc1ccc(Br)c(Cl)c1", "max response, negative = inhibition": "inactive: -9.86%"}, {"smiles": "CCC(C)Nc1nc(Cl)nc(N(C#N)CN2C(=O)c3ccccc3S2(=O)=O)n1", "note": "(stereo not drawn)", "Potency": "inconclusive: 39.8 µM [inhibitor, partial curve]"}, {"smiles": "O=S1(=O)CCC(NC(=S)NCCNC(=S)NC2CCS(=O)(=O)C2)C1", "note": "(stereo not drawn)", "Potency": "inconclusive: 39.8 µM [inhibitor, partial curve, poor fit]"}, {"smiles": "COc1ccc([C@H]2CC(=O)C=C(C#CC(C)(C)C)C2)cc1", "Potency": "inconclusive: 79.4 µM [inhibitor, partial curve, poor fit]"}, {"smiles": "CC(C)(C)c1ccc(C(=O)N2CCC(=O)N([C@H](COCc3ccc(Cl)cc3)Cc3ccccc3)CC2)cc1", "Potency": "inconclusive: 50.1 µM [inhibitor, single point]"}, {"smiles": "O=C1N/C(=N\\S(=O)(=O)c2ccccc2)S/C1=C\\c1cc([N+](=O)[O-])ccc1O", "Potency": "inconclusive: 56.2 µM [inhibitor, partial curve, poor fit]"}, {"smiles": "O=C(Cn1sc2ccccc2c1=O)NC12CC3CC(CC(C3)C1)C2", "Potency": "inconclusive: 3.16 µM [inhibitor, full curve, poor fit]"}]}]}
